Source: the supplement of paper PMC10849652
Some of the results follow.

The chains behind the UniProt entries cited, without tags or fusion partners. Where a name states a change or a piece, a line headed by the entry shows the natural chain unless it says otherwise.
UniProt P26640: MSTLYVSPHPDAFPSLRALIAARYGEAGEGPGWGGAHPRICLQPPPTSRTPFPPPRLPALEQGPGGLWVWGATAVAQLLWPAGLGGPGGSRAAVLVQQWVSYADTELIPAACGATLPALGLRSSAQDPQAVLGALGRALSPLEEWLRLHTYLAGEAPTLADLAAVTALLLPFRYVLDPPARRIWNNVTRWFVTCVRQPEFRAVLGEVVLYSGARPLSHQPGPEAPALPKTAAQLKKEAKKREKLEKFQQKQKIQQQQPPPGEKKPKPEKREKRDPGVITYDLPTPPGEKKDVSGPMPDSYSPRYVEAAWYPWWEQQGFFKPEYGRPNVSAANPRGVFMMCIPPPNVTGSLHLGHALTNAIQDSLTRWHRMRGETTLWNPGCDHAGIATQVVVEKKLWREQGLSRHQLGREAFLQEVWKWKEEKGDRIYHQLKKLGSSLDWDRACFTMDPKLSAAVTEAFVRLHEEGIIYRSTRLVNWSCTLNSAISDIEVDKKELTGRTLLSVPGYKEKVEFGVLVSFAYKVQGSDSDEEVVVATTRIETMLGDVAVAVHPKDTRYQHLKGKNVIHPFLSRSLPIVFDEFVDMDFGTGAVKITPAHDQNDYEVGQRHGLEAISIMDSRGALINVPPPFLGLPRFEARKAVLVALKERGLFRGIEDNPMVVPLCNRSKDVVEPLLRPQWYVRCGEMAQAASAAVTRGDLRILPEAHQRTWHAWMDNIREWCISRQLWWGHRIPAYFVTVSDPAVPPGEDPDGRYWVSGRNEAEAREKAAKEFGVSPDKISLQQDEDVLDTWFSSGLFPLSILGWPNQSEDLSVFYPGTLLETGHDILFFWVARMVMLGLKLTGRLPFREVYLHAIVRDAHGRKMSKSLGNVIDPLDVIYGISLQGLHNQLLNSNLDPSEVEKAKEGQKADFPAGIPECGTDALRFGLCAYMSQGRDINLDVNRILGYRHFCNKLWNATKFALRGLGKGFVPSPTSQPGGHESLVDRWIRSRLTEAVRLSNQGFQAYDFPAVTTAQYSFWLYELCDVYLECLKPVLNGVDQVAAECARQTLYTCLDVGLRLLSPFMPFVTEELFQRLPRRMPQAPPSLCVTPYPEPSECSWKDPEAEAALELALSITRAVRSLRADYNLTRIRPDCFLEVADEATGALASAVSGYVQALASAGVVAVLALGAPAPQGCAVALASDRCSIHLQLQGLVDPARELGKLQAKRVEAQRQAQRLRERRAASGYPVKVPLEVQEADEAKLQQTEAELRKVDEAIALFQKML
UniProt P50552: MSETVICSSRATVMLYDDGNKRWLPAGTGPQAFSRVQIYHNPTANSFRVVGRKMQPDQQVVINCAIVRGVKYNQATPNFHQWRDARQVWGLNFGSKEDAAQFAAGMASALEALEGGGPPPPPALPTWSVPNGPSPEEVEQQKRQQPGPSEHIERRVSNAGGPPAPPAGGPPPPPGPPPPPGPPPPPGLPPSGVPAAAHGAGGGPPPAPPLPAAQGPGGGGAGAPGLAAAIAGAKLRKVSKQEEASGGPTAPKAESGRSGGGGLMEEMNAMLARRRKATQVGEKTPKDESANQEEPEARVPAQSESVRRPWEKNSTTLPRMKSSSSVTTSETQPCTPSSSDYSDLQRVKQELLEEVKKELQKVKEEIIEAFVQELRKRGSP
UniProt Q9NRR5, whole entry, looked up: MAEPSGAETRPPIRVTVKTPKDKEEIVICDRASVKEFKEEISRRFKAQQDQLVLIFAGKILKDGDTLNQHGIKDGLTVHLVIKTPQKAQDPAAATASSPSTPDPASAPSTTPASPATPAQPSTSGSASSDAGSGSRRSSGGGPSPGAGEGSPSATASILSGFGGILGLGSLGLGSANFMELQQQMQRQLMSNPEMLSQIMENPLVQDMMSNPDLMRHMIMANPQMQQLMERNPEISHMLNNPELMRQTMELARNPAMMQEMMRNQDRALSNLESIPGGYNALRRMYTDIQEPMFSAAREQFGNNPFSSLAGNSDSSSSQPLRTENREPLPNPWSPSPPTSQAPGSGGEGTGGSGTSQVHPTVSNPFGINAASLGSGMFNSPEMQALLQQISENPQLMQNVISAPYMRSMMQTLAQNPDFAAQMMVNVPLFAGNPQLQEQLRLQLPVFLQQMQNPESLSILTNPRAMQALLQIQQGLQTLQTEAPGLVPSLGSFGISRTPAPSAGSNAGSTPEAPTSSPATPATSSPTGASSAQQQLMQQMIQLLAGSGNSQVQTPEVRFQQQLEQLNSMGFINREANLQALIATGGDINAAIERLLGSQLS
UniProt Q8N806: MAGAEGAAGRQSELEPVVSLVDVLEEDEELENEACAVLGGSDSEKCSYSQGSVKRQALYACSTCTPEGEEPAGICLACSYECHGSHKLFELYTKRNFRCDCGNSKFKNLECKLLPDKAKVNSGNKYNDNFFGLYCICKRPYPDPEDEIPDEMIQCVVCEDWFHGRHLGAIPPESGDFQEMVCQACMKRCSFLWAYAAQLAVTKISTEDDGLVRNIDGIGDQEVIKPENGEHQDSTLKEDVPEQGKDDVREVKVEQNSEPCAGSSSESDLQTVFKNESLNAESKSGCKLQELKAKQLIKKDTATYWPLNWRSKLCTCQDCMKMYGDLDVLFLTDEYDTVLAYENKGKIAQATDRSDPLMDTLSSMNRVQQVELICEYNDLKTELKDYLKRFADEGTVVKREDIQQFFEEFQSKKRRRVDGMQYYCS
UniProt Q9P0L0: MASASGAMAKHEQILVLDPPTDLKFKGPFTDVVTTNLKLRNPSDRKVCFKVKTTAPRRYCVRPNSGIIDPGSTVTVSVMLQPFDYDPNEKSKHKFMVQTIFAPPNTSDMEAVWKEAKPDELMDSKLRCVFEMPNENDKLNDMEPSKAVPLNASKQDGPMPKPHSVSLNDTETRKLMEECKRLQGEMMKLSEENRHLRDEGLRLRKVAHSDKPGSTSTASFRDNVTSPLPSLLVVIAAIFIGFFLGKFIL
UniProt Q9BV40: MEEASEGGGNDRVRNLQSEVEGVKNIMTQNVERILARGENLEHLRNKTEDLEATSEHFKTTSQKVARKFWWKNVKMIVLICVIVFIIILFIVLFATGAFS
UniProt P61758, whole entry, looked up: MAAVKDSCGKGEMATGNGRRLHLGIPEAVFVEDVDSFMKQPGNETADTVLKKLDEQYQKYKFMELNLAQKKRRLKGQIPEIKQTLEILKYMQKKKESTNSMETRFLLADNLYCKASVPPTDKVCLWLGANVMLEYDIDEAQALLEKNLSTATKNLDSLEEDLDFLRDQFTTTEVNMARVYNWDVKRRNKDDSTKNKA
UniProt Q9Y3C8: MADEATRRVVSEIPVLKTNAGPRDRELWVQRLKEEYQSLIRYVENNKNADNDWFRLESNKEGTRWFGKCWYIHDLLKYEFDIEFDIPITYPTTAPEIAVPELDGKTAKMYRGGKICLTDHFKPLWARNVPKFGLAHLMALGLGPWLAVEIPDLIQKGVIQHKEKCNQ
UniProt P10746: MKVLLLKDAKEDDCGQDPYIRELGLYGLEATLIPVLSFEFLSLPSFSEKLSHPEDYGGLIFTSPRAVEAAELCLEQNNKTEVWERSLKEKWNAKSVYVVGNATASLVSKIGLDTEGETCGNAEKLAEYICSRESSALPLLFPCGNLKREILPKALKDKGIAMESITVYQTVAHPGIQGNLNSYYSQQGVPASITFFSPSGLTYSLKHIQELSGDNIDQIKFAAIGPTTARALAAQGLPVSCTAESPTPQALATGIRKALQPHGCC
UniProt O94888: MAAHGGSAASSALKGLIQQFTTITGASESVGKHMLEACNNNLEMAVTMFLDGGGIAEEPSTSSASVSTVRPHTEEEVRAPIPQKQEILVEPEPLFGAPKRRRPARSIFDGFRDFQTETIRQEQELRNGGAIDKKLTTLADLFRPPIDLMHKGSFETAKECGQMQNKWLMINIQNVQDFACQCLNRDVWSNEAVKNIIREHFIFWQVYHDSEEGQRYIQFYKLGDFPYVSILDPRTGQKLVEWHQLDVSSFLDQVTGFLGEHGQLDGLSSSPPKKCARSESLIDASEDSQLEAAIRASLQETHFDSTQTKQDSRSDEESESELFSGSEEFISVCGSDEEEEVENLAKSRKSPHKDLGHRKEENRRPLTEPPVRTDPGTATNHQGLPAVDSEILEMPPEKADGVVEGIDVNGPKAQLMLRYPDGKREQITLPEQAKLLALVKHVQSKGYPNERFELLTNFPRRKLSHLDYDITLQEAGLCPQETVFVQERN
UniProt P45974: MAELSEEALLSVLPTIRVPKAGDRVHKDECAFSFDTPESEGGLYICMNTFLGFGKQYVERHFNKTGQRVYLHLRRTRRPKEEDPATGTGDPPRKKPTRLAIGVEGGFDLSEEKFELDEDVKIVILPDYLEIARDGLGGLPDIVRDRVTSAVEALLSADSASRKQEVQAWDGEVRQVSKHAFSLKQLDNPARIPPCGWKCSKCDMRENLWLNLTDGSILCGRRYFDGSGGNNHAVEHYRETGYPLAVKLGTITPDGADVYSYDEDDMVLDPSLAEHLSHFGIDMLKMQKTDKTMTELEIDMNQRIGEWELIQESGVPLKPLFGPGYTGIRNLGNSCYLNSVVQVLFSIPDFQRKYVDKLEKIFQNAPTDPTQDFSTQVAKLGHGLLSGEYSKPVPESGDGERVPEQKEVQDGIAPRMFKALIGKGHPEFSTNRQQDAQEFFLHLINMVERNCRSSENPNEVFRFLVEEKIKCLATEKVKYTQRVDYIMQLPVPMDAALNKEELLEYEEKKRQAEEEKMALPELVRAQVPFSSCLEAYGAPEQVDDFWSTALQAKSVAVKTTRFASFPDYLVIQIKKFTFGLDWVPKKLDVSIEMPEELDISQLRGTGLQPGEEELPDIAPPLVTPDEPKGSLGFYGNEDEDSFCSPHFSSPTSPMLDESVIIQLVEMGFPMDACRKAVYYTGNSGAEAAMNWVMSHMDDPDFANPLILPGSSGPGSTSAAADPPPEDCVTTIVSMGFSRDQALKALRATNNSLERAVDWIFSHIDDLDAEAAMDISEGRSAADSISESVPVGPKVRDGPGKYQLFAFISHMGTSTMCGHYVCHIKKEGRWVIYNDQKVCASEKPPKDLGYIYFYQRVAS
UniProt O94966: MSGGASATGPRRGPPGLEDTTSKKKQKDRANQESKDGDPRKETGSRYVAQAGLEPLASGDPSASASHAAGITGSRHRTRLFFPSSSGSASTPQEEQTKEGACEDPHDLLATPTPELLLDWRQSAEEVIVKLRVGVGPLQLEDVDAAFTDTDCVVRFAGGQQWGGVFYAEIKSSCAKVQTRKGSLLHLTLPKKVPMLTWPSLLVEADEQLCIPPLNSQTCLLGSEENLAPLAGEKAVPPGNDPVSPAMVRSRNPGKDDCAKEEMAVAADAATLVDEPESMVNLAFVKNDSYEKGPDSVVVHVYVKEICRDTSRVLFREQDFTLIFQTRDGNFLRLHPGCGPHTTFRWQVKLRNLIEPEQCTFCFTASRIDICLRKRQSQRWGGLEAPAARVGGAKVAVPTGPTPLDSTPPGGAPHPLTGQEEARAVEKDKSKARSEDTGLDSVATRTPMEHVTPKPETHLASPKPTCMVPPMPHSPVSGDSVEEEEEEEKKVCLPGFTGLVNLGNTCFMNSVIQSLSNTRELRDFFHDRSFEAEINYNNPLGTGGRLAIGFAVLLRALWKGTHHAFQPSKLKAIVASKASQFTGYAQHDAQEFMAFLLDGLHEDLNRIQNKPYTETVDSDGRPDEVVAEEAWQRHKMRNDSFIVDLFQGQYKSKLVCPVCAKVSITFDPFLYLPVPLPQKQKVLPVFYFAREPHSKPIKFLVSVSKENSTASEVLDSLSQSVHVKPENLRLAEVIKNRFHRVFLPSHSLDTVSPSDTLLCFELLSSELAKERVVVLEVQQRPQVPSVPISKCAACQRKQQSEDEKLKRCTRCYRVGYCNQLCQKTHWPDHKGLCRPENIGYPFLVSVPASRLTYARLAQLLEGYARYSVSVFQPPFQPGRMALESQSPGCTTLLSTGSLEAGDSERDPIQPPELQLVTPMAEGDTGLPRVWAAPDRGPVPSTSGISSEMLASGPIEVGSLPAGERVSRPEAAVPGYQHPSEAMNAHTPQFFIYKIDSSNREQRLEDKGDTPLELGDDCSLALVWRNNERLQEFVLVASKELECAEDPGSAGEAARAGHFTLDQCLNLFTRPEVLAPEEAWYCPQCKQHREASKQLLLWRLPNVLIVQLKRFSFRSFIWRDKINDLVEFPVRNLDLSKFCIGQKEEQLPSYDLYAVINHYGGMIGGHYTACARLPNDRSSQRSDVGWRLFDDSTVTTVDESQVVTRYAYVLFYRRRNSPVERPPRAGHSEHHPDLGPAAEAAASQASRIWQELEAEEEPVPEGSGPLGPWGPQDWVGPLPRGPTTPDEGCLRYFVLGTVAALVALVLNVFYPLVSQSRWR
UniProt Q9NZ43: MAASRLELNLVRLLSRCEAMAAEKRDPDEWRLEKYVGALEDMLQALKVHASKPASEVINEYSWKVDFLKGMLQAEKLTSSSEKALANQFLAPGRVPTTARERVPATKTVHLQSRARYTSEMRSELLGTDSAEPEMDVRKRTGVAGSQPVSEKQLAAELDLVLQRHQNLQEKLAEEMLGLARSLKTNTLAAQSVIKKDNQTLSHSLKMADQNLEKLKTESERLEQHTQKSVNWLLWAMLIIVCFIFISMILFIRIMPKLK

Legend:
Test in all cases: log2 fold change, soluble protein after heating vs DMSO (PISA); higher = thermal stabilisation; K562 cells, 10 uM, 30 min; active = over 0.2 and 3.5 SD of the protein, either way, in both replicates (recomputed)
[1] = compound: CC[C@@H]1C(=O)N(C)c2cnc(Nc3ccc(C(=O)NC4CCN(C)CC4)cc3OC)nc2N1C1CCCC1
In short: (§1)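 K562 cells at 2×10^6 cells/mL were treated with 10 μM compound for 30 min. Aliquots were heated for 3 min across 48°C-58°C, pooled, and extracted in PBS with 0.5% NP-40 at 4°C; soluble protein was the supernatant after 21,000xg for 90 min. Soluble protein was quantified by TMTpro 16plex LC-MS/MS with channel sums equalised, and reported as log2 fold change in thermal stability against DMSO controls, with values from duplicates.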

volasertib = compound: CC[C@@H]1C(=O)N(C)c2cnc(Nc3ccc(C(=O)N[C@H]4CC[C@H](N5CCN(CC6CC6)CC5)CC4)cc3OC)nc2N1C(C)C [volasertib]
In short: as §1

[2] = compound: CC[C@H](C)N1C=C(C2=C(C=C(C=C21)C3=CN=C(C=C3)N4CCNCC4)C(=O)NCC5=C(C=C(NC5=O)C)C)C
In short: as §1

epoxomicin = compound: CC[C@H](C)[C@@H](C(=O)N[C@@H]([C@@H](C)O)C(=O)N[C@@H](CC(C)C)C(=O)[C@]1(CO1)C)NC(=O)[C@H]([C@@H](C)CC)N(C)C(=O)C [epoxomicin]
In short: as §1

[3] = compound: CCn1c(C(=O)N(C2CC2)C2CC2)cc2c3c(ncn3C)c(Nc3cc(C)n(C)n3)nc21
In short: as §1

[4] = compound: CCn1cc(-c2ccnc3[nH]c(-c4cccc(CN(C)C)c4)cc23)c(-c2ccc(NC(=O)N(C)C)cc2)n1
In short: as §1

[5] = compound: CN(C)CC(=O)Nc1ccc2[nH]c(=O)c3ccccc3c2c1
In short: as §1

rosiglitazone = compound: CN(CCOC1=CC=C(C=C1)C[C@H]2C(=O)NC(=O)S2)C3=CC=CC=N3 (racemic) [rosiglitazone]
In short: as §1

[6] = compound: CN1C2=C(C3=C1C(=O)N(N=C3)CC4=CC(=CC=C4)N)SC(=C2)S(=O)C
In short: as §1

[7] = compound: CN1CCC(CNc2ccc3ncc(-c4cccc(OC(F)(F)F)c4)n3n2)CC1
In short: as §1

saracatinib = compound: CN1CCN(CCOc2cc(OC3CCOCC3)c3c(Nc4c(Cl)ccc5c4OCO5)ncnc3c2)CC1 [saracatinib]
In short: as §1

sotrastaurin = compound: CN1CCN(c2nc(C3=C(c4c[nH]c5ccccc45)C(=O)NC3=O)c3ccccc3n2)CC1 [sotrastaurin]
In short: as §1

alvocidib = compound: CN1CC[C@H](c2c(O)cc(O)c3c(=O)cc(-c4ccccc4Cl)oc23)[C@H](O)C1 [alvocidib]
In short: as §1

Tubastatin A = compound: CN1CCc2c(c3ccccc3n2Cc2ccc(C(=O)NO)cc2)C1 [Tubastatin A]
In short: as §1

[8] = compound: CNC(=O)C1=CC=CC=C1NC2=NC(=NC=C2Cl)NC3=C(C=C(C=C3)N4CCOCC4)OC
In short: as §1

defactinib = compound: CNC(=O)c1ccc(Nc2ncc(C(F)(F)F)c(NCc3nccnc3N(C)S(C)(=O)=O)n2)cc1 [defactinib]
In short: as §1

rucaparib = compound: CNCc1ccc(-c2[nH]c3cc(F)cc4c3c2CCNC4=O)cc1 [rucaparib]
In short: as §1

[9] = compound: CNc1nc(-c2ccc3c(N)n[nH]c3c2)cc(N2C[C@@H](C(=O)NC3CCCCC3)CC[C@H]2C)n1
In short: as §1

encorafenib = compound: COC(=O)N[C@@H](C)CNc1nccc(-c2cn(C(C)C)nc2-c2cc(Cl)cc(NS(C)(=O)=O)c2F)n1 [encorafenib]
In short: as §1

[10] = compound: COC(=O)[C@H](CCSC)NC(=O)C1=C(C=C(C=C1)NC[C@H](CS)N)C2=CC=CC=C2
In short: as §1

Measured: log2 fold change

VARS (UniProt P26640)
inactive: [1] -0.05 | volasertib -0.28 | [2] 0.039 | epoxomicin -0.029 | [3] -0.029 | [4] -0.007 | [5] 0.031 | rosiglitazone 0.027 | [6] 0.004 | [7] -0.035 | saracatinib -0.029 | sotrastaurin -0.032 | alvocidib -0.011 | Tubastatin A 0.006 | [8] 0.043 | defactinib -0.023 | rucaparib 0.091 | [9] 0.012 | encorafenib 0.08 | [10] -0.02

VASP (UniProt P50552)
inactive: [1] -0.066 | volasertib -0.291 | [2] 0.125 | epoxomicin 0.006 | [3] -0.12 | [4] -0.019 | [5] 0.079 | rosiglitazone 0.08 | [6] 0.1 | [7] -0.145 | saracatinib -0.137 | sotrastaurin -0.184 | alvocidib -0.056 | Tubastatin A 0.003 | [8] 0.057 | defactinib -0.032 | rucaparib 0.236 | [9] 0.13 | encorafenib 0.136 | [10] -0.103

UBQLN4 (UniProt Q9NRR5)
inactive: [1] 0.009 | volasertib 0.055 | [2] -0.076 | epoxomicin 0.037 | [3] 0.017 | [4] 0.023 | [5] -0.018 | rosiglitazone -0.01 | [6] -0.035 | [7] 0.019 | saracatinib 0.056 | sotrastaurin -0.032 | alvocidib 0.004 | Tubastatin A -0.017 | [8] -0.027 | defactinib 0.034 | rucaparib -0.036 | [9] -0.044 | encorafenib -0.015 | [10] -0.01

UBR7 (UniProt Q8N806)
inactive: [1] -0.015 | volasertib -0.121 | [2] 0.047 | epoxomicin 0.077 | [3] -0.017 | [4] 0.002 | [5] -0.046 | rosiglitazone 0.022 | [6] -0.063 | [7] -0.016 | saracatinib 0.056 | sotrastaurin 0.039 | alvocidib -0.107 | Tubastatin A 0.011 | [8] 0.006 | defactinib -0.073 | rucaparib -0.045 | [9] -0.064 | encorafenib 0.034 | [10] 0.024

VAPA (UniProt Q9P0L0)
inactive: [1] 0.032 | volasertib 0.068 | [2] -0.02 | epoxomicin 0.005 | [3] -0.044 | [4] 0.118 | [5] -0.021 | rosiglitazone 0.022 | [6] -0.034 | [7] 0.129 | saracatinib 0.007 | sotrastaurin 0.01 | alvocidib -0.033 | Tubastatin A 0.012 | [8] 0.071 | defactinib -0.022 | rucaparib -0.169 | [9] -0.023 | encorafenib 0.025 | [10] 0.02

UBQLN2 (UniProt Q9UHD9)
inactive: [1] 0.056 | volasertib -0.005 | [2] -0.043 | epoxomicin 0.019 | [3] 0.02 | [4] -0.038 | [5] 0.001 | rosiglitazone 0 | [6] -0.01 | [7] 0.1 | saracatinib 0.114 | sotrastaurin 0.01 | alvocidib -0.033 | Tubastatin A 0.041 | [8] -0.042 | defactinib -0.036 | rucaparib -0.011 | [9] -0.003 | encorafenib 0 | [10] -0.033

VAMP8 (UniProt Q9BV40)
inactive: [1] 0 | volasertib 0.08 | [2] -0.061 | epoxomicin -0.032 | [3] 0.049 | [4] 0.045 | [5] -0.038 | rosiglitazone -0.04 | [6] 0.006 | [7] 0.055 | saracatinib 0.06 | sotrastaurin 0.048 | alvocidib -0.027 | Tubastatin A -0.075 | [8] 0.016 | defactinib 0.049 | rucaparib -0.037 | [9] -0.051 | encorafenib -0.034 | [10] 0.04

VBP1 (UniProt P61758)
inactive: [1] 0.007 | volasertib 0.064 | [2] -0.019 | epoxomicin 0.025 | [3] 0.008 | [4] 0.014 | [5] -0.019 | rosiglitazone -0.009 | [6] -0.031 | [7] -0.041 | saracatinib 0.028 | sotrastaurin 0.041 | alvocidib 0.015 | Tubastatin A -0.028 | [8] -0.019 | defactinib -0.006 | rucaparib -0.022 | [9] -0.034 | encorafenib -0.028 | [10] 0.032

UFC1 (UniProt Q9Y3C8)
inactive: [1] -0.042 | volasertib 0.055 | [2] -0.004 | epoxomicin -0.036 | [3] -0.014 | [4] -0.012 | [5] -0.052 | rosiglitazone 0.034 | [6] -0.083 | [7] 0.016 | saracatinib 0.059 | sotrastaurin 0.018 | alvocidib -0.032 | Tubastatin A -0.022 | [8] -0.031 | defactinib 0.005 | rucaparib 0.033 | [9] -0.001 | encorafenib -0.085 | [10] 0.062

UROS (UniProt P10746)
inactive: [1] -0.06 | volasertib -0.075 | [2] 0.035 | epoxomicin 0.08 | [3] 0.025 | [4] -0.063 | [5] 0.044 | rosiglitazone 0.02 | [6] -0.042 | [7] -0.012 | saracatinib -0.06 | sotrastaurin -0.041 | alvocidib -0.043 | Tubastatin A -0.018 | [8] -0.019 | defactinib -0.082 | rucaparib 0.097 | [9] 0.045 | encorafenib 0.015 | [10] 0.011

UBXN7 (UniProt O94888)
inactive: [1] -0.029 | volasertib -0.107 | [2] -0.003 | epoxomicin 0.037 | [3] -0.029 | [4] -0.067 | [5] -0.017 | rosiglitazone 0.019 | [6] -0.053 | [7] -0.022 | saracatinib 0.052 | sotrastaurin -0.033 | alvocidib -0.072 | Tubastatin A 0.006 | [8] -0.019 | defactinib -0.067 | rucaparib -0.026 | [9] -0.036 | encorafenib -0.011 | [10] 0.002

VAPA isoform 2 (UniProt Q9P0L0)
inactive: [1] 0.008 | volasertib 0.073 | [2] -0.034 | epoxomicin -0.025 | [3] -0.014 | [4] 0 | [5] -0.038 | rosiglitazone 0 | [6] -0.041 | [7] 0.129 | saracatinib 0.019 | sotrastaurin 0.025 | alvocidib 0.025 | Tubastatin A 0.003 | [8] 0.03 | defactinib 0.001 | rucaparib -0.066 | [9] -0.019 | encorafenib 0.003 | [10] 0.061

2 consecutive entries out of the list so far:
UFC1 (UniProt Q9Y3C8)
inactive: [1] -0.042 | volasertib 0.055 | [2] -0.004 | epoxomicin -0.036 | [3] -0.014 | [4] -0.012 | [5] -0.052 | rosiglitazone 0.034 | [6] -0.083 | [7] 0.016 | saracatinib 0.059 | sotrastaurin 0.018 | alvocidib -0.032 | Tubastatin A -0.022 | [8] -0.031 | defactinib 0.005 | rucaparib 0.033 | [9] -0.001 | encorafenib -0.085 | [10] 0.062

UROS (UniProt P10746)
inactive: [1] -0.06 | volasertib -0.075 | [2] 0.035 | epoxomicin 0.08 | [3] 0.025 | [4] -0.063 | [5] 0.044 | rosiglitazone 0.02 | [6] -0.042 | [7] -0.012 | saracatinib -0.06 | sotrastaurin -0.041 | alvocidib -0.043 | Tubastatin A -0.018 | [8] -0.019 | defactinib -0.082 | rucaparib 0.097 | [9] 0.045 | encorafenib 0.015 | [10] 0.011

Carrying on:

USP5 (UniProt P45974)
inactive: [1] -0.005 | volasertib 0.048 | [2] 0.011 | epoxomicin 0.048 | [3] -0.006 | [4] -0.004 | [5] 0.015 | rosiglitazone 0.019 | [6] -0.055 | [7] -0.019 | saracatinib -0.024 | sotrastaurin 0.006 | alvocidib -0.102 | Tubastatin A 0.023 | [8] -0.014 | defactinib -0.045 | rucaparib -0.058 | [9] 0.01 | encorafenib 0.013 | [10] -0.02

USP19 isoform 6 (UniProt O94966)
inactive: [1] 0 | volasertib -0.112 | [2] 0.064 | epoxomicin 0.018 | [3] -0.044 | [4] -0.042 | [5] 0.043 | rosiglitazone 0.027 | [6] -0.084 | [7] 0.016 | saracatinib 0.048 | sotrastaurin -0.021 | alvocidib -0.085 | Tubastatin A 0.029 | [8] 0.011 | defactinib -0.039 | rucaparib 0.01 | [9] -0.029 | encorafenib 0.015 | [10] -0.025

USE1 (UniProt Q9NZ43)
inactive: [1] -0.047 | volasertib -0.112 | [2] 0.025 | epoxomicin 0.017 | [3] 0.026 | [4] 0.001 | [5] -0.022 | rosiglitazone 0.034 | [6] 0.038 | [7] 0.053 | saracatinib 0.075 | sotrastaurin -0.001 | alvocidib 0.001 | Tubastatin A -0.011 | [8] -0.02 | defactinib -0.055 | rucaparib 0.094 | [9] 0.031 | encorafenib 0.036 | [10] -0.065

VAT1 (UniProt Q99536)
inactive: [1] 0.028 | volasertib 0.078 | [2] 0.036 | epoxomicin 0.011 | [3] 0.02 | [4] -0.032 | [5] 0.008 | rosiglitazone 0.004 | [6] -0.062 | [7] 0.143 | saracatinib 0.02 | sotrastaurin 0.028 | alvocidib -0.026 | Tubastatin A -0.005 | [8] 0.004 | defactinib -0.026 | rucaparib -0.007 | [9] 0.01 | encorafenib -0.021 | [10] 0.012
